These are literature values, as cited in patent US20110097268A1, “RADIOHALOIMATINIBS AND METHODS OF THEIR SYNTHESIS AND USE IN PET IMAGING OF CANCERS” (priority 2006, published 2011).

pIC50: −log10 of the molar value.

This data set deals with Activation loop mutations of c-Kit involving codon D816. The note with it: c-Kit codon D816 activation loop mutations (AML, systemic mastocytosis, seminoma); cited from earlier work.

One may read the pIC50 as −log10 of the IC50, conventionally taken in molar units. With `Cc1ccc(NC(=O)c2ccc(CN3CCN(C)CC3)cc2)cc1Nc1nccc(-c2cccnc2)n1` [STI-571, N-{5-[4-(4-methylpiperazinemethyl)-benzoylamido]-2-methylphenyl}-4-[3-(4-methyl)-pyridyl]-2-pyrimidine amine], the pIC50 is 5.00 to 5.30.
